Data: the supplement of paper PMC10849652
Some of the results follow.

Protein sequences, listed by entry. Tags and fused reporters are not part of them. Lines headed by an entry give the natural chain unless they say otherwise; changes in a name come on top.
UniProt P15976: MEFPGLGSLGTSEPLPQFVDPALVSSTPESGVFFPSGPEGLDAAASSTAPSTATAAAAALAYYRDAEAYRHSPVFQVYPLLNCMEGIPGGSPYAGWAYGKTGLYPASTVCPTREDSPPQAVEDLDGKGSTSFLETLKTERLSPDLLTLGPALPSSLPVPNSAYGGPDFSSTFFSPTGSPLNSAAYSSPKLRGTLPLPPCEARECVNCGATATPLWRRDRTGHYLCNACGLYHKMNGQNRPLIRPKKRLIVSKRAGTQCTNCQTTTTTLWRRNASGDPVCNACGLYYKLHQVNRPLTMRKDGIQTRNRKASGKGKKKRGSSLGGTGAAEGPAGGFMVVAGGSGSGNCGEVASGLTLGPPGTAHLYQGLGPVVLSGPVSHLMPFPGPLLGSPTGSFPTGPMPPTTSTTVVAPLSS
UniProt Q9UPW0: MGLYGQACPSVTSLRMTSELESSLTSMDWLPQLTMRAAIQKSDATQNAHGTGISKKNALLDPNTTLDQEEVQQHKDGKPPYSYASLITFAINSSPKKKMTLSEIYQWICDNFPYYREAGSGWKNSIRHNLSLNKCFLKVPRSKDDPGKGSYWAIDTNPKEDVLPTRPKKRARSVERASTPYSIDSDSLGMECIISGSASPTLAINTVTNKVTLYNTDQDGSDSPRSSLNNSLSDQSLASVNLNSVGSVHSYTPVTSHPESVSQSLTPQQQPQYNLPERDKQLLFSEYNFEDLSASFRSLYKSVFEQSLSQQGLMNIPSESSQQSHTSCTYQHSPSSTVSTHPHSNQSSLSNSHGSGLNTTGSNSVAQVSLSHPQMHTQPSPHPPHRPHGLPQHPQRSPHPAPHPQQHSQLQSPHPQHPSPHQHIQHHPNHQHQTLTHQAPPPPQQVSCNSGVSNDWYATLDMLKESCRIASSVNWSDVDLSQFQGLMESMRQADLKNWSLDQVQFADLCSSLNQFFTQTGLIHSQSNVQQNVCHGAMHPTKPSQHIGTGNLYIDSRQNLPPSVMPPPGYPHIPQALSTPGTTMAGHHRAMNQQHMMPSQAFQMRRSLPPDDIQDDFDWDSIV
UniProt Q9NWZ8: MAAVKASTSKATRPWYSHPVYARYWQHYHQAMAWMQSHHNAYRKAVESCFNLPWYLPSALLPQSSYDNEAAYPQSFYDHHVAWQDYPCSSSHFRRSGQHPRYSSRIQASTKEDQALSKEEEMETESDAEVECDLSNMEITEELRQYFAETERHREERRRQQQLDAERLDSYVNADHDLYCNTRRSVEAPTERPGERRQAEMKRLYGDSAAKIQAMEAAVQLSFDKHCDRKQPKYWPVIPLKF
UniProt P04066: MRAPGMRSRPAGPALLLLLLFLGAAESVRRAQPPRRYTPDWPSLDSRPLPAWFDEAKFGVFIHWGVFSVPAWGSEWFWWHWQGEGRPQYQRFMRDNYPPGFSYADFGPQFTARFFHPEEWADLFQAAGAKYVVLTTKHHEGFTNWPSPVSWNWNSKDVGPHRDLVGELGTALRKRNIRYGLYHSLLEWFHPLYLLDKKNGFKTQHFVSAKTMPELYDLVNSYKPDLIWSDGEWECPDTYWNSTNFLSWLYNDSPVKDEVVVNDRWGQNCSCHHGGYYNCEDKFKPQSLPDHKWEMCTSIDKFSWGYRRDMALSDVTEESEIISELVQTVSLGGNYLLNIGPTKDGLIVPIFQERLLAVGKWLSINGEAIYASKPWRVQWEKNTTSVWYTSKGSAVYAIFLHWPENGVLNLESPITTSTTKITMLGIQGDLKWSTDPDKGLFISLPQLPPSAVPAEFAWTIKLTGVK
UniProt Q8IVV7: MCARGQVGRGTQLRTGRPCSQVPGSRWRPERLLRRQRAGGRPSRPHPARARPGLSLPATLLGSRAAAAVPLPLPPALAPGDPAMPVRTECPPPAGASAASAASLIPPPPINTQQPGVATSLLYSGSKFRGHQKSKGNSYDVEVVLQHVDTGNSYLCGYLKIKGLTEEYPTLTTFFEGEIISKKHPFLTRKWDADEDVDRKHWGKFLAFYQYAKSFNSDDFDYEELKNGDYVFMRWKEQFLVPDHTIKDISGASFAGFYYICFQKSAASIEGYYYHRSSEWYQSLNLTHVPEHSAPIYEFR
UniProt Q8IWJ2: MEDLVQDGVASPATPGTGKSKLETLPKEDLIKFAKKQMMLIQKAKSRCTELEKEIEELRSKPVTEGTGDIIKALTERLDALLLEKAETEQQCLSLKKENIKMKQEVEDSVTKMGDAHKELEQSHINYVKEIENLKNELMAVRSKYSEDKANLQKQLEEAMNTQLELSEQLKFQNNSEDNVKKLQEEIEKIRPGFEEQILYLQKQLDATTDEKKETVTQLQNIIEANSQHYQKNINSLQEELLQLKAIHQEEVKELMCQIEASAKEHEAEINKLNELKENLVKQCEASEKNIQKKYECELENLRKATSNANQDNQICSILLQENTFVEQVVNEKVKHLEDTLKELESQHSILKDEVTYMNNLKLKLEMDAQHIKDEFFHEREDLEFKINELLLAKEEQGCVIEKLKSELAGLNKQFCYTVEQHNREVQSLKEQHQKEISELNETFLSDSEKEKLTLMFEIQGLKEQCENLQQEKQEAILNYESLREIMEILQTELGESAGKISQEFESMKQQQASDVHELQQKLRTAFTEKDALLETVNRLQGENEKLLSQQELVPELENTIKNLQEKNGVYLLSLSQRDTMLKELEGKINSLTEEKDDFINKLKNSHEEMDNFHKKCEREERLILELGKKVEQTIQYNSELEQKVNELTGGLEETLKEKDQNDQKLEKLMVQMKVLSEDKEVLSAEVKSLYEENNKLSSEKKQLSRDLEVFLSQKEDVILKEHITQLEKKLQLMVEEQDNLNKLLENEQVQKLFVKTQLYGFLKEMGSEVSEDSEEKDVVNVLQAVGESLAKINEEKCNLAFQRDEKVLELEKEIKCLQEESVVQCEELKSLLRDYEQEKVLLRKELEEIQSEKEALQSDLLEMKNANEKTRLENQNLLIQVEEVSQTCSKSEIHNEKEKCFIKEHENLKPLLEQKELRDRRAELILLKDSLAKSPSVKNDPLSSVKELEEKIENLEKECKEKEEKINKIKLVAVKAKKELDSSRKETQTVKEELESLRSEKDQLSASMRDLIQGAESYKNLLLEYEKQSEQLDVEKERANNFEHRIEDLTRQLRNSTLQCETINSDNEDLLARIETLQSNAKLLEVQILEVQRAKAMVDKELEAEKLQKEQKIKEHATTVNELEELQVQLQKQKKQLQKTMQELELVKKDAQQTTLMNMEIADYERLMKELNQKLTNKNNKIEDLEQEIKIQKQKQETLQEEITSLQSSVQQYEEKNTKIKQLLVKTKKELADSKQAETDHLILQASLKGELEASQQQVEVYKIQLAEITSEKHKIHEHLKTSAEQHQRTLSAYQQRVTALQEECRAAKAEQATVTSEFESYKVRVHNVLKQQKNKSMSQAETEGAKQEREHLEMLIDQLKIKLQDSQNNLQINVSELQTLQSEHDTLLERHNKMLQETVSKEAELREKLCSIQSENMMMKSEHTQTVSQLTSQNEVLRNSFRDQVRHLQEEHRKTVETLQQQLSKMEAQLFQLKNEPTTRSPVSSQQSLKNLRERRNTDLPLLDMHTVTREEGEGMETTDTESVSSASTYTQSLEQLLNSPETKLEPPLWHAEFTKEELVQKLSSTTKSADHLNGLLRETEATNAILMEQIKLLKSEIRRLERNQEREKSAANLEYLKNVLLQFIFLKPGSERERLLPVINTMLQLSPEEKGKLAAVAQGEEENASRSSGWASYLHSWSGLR
UniProt Q8NB37: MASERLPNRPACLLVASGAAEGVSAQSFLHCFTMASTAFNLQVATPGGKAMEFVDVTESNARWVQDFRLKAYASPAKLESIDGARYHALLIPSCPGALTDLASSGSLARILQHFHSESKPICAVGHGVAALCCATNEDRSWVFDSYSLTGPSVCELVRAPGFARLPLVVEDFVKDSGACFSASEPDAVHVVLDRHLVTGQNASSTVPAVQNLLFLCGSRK
UniProt O15117, whole entry, looked up: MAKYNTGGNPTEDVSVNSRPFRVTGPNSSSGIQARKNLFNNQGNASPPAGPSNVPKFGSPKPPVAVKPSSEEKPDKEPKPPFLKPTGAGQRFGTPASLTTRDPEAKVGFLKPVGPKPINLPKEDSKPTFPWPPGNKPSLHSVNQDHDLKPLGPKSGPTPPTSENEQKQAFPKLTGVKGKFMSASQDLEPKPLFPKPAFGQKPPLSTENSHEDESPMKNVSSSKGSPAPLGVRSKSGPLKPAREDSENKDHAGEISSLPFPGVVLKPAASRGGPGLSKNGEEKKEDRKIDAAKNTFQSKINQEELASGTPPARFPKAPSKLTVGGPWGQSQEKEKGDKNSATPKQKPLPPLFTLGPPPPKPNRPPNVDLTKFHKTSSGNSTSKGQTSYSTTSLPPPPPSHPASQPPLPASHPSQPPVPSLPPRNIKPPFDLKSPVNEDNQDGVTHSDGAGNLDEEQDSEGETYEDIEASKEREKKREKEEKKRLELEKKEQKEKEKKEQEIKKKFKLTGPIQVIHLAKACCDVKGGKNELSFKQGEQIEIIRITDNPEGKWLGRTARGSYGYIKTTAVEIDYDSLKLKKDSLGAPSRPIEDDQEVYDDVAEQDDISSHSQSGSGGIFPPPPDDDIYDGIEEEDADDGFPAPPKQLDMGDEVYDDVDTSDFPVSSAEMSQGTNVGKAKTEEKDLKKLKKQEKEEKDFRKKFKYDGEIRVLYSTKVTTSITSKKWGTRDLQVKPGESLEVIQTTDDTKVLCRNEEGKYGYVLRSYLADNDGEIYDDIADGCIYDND
UniProt P48507: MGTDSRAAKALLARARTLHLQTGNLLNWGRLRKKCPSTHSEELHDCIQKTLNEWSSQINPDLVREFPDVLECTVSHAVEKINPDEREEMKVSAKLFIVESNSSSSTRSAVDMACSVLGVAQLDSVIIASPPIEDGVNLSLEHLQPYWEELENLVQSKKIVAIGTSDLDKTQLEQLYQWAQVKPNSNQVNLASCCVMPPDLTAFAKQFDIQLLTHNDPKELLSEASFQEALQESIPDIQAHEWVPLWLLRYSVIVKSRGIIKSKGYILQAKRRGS
UniProt P60520, whole entry, looked up: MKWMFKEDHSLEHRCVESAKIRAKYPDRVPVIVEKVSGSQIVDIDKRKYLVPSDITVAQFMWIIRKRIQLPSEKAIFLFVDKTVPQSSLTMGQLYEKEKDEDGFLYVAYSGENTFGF
UniProt Q8N2G8: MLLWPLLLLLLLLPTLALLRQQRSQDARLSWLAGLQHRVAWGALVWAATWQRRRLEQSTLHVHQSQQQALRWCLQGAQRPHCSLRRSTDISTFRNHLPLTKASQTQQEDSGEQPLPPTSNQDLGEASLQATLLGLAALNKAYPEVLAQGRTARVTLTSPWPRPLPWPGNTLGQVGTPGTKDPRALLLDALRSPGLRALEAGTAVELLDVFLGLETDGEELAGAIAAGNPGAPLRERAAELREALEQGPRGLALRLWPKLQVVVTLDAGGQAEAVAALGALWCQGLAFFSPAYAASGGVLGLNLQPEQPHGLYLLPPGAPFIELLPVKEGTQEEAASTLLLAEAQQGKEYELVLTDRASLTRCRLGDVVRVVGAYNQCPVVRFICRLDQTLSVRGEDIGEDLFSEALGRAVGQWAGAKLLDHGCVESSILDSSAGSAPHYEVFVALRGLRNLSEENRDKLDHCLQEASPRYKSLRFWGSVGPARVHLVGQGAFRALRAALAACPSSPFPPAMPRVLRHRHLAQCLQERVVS
UniProt Q9HCG7: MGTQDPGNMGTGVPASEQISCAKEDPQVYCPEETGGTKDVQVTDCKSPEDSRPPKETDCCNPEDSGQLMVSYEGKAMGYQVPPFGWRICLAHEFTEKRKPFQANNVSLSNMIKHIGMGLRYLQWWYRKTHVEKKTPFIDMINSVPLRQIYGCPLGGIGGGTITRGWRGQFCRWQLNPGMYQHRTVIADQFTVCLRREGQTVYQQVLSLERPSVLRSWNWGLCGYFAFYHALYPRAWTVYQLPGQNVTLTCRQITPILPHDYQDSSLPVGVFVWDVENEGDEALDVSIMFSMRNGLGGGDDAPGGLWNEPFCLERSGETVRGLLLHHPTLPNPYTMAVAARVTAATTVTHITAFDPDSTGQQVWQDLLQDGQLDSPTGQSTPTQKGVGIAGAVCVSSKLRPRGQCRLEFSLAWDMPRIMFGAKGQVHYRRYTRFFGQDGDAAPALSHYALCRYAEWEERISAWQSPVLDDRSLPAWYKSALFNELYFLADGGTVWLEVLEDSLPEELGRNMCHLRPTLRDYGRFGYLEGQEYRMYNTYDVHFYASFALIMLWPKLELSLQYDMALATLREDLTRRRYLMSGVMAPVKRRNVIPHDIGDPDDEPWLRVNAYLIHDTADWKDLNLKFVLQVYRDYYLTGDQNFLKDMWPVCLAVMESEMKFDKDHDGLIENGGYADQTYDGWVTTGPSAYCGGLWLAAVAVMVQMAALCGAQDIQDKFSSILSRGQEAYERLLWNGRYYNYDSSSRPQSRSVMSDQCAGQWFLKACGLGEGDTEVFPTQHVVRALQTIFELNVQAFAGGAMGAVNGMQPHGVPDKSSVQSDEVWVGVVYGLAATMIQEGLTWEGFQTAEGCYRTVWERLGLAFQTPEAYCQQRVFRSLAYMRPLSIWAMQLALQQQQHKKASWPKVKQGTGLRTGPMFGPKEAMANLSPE

Columns and labels:
Test in all cases: log2 fold change, soluble protein after heating vs DMSO (PISA); higher = thermal stabilisation; K562 cells, 10 uM, 30 min; active = over 0.2 and 3.5 SD of the protein, either way, in both replicates (recomputed)
[1] = compound: CC[C@@H]1C(=O)N(C)c2cnc(Nc3ccc(C(=O)NC4CCN(C)CC4)cc3OC)nc2N1C1CCCC1
Summary of the method: (§1)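 Soluble protein was quantified by TMTpro 16plex LC-MS/MS after channel sums were equalised. It was obtained as the supernatant after 21,000xg for 90 min from pooled aliquots of K562 cells (2×10^6 cells/mL, 10 μM compound, 30 min) heated for 3 min across 48°C-58°C and extracted in PBS with 0.5% NP-40 at 4°C. Thermal stability values are relative to control samples and come from duplicates. They are given as log2 fold changes.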

volasertib = compound: CC[C@@H]1C(=O)N(C)c2cnc(Nc3ccc(C(=O)N[C@H]4CC[C@H](N5CCN(CC6CC6)CC5)CC4)cc3OC)nc2N1C(C)C [volasertib]
Summary of the method: as §1

[2] = compound: CC[C@H](C)N1C=C(C2=C(C=C(C=C21)C3=CN=C(C=C3)N4CCNCC4)C(=O)NCC5=C(C=C(NC5=O)C)C)C
Summary of the method: as §1

epoxomicin = compound: CC[C@H](C)[C@@H](C(=O)N[C@@H]([C@@H](C)O)C(=O)N[C@@H](CC(C)C)C(=O)[C@]1(CO1)C)NC(=O)[C@H]([C@@H](C)CC)N(C)C(=O)C [epoxomicin]
Summary of the method: as §1

[3] = compound: CCn1cc(-c2ccnc3[nH]c(-c4cccc(CN(C)C)c4)cc23)c(-c2ccc(NC(=O)N(C)C)cc2)n1
Summary of the method: as §1

[4] = compound: CN(C)CC(=O)Nc1ccc2[nH]c(=O)c3ccccc3c2c1
Summary of the method: as §1

[5] = compound: CN1C2=C(C3=C1C(=O)N(N=C3)CC4=CC(=CC=C4)N)SC(=C2)S(=O)C
Summary of the method: as §1

[6] = compound: CN1CCC(CNc2ccc3ncc(-c4cccc(OC(F)(F)F)c4)n3n2)CC1
Summary of the method: as §1

saracatinib = compound: CN1CCN(CCOc2cc(OC3CCOCC3)c3c(Nc4c(Cl)ccc5c4OCO5)ncnc3c2)CC1 [saracatinib]
Summary of the method: as §1

sotrastaurin = compound: CN1CCN(c2nc(C3=C(c4c[nH]c5ccccc45)C(=O)NC3=O)c3ccccc3n2)CC1 [sotrastaurin]
Summary of the method: as §1

Tubastatin A = compound: CN1CCc2c(c3ccccc3n2Cc2ccc(C(=O)NO)cc2)C1 [Tubastatin A]
Summary of the method: as §1

[7] = compound: CNC(=O)C1=CC=CC=C1NC2=NC(=NC=C2Cl)NC3=C(C=C(C=C3)N4CCOCC4)OC
Summary of the method: as §1

defactinib = compound: CNC(=O)c1ccc(Nc2ncc(C(F)(F)F)c(NCc3nccnc3N(C)S(C)(=O)=O)n2)cc1 [defactinib]
Summary of the method: as §1

rucaparib = compound: CNCc1ccc(-c2[nH]c3cc(F)cc4c3c2CCNC4=O)cc1 [rucaparib]
Summary of the method: as §1

[8] = compound: CNc1nc(-c2ccc3c(N)n[nH]c3c2)cc(N2C[C@@H](C(=O)NC3CCCCC3)CC[C@H]2C)n1
Summary of the method: as §1

encorafenib = compound: COC(=O)N[C@@H](C)CNc1nccc(-c2cn(C(C)C)nc2-c2cc(Cl)cc(NS(C)(=O)=O)c2F)n1 [encorafenib]
Summary of the method: as §1

[9] = compound: COC(=O)[C@H](CCSC)NC(=O)C1=C(C=C(C=C1)NC[C@H](CS)N)C2=CC=CC=C2
Summary of the method: as §1

[10] = compound: CCn1c(C(=O)N(C2CC2)C2CC2)cc2c3c(ncn3C)c(Nc3cc(C)n(C)n3)nc21
Summary of the method: as §1

rosiglitazone = compound: CN(CCOC1=CC=C(C=C1)C[C@H]2C(=O)NC(=O)S2)C3=CC=CC=N3 (racemic) [rosiglitazone]
Summary of the method: as §1

alvocidib = compound: CN1CC[C@H](c2c(O)cc(O)c3c(=O)cc(-c4ccccc4Cl)oc23)[C@H](O)C1 [alvocidib]
Summary of the method: as §1

Target | log2 fold change [1] | log2 fold change (volasertib) | log2 fold change [2] | log2 fold change (epoxomicin) | log2 fold change [3] | log2 fold change [4] | log2 fold change [5] | log2 fold change [6] | log2 fold change (saracatinib) | log2 fold change (sotrastaurin) | log2 fold change (Tubastatin A) | log2 fold change [7] | log2 fold change (defactinib) | log2 fold change (rucaparib) | log2 fold change [8] | log2 fold change (encorafenib) | log2 fold change [9] | log2 fold change [10] | log2 fold change (rosiglitazone) | log2 fold change (alvocidib)
GATA1 (UniProt P15976) | inactive: 0.134 | inactive: 0.076 | inactive: -0.036 | inactive: 0.152 | inactive: 0.04 | inactive: -0.084 | inactive: 0.046 | inactive: 0.119 | inactive: 0.097 | inactive: -0.042 | inactive: -0.049 | inactive: 0.104 | inactive: 0.088 | inactive: 0.086 | inactive: -0.014 | inactive: 0.054 | inactive: 0 |  |  | 
FOXJ3 (UniProt Q9UPW0) | inactive: 0.298 | inactive: -0.343 | inactive: 0.014 | inactive: -0.01 |  | inactive: -0.097 | inactive: 0.034 |  | inactive: 0.159 |  | inactive: -0.057 | inactive: -0.029 | inactive: -0.038 | inactive: -0.176 | inactive: -0.35 | inactive: 0.007 | inactive: 0.379 | inactive: 0.001 | inactive: 0.12 | inactive: -0.151
GEMIN8 (UniProt Q9NWZ8) | inactive: 0.204 | inactive: -0.049 | inactive: -0.056 | inactive: -0.16 |  | inactive: -0.06 |  |  |  |  | inactive: -0.125 | inactive: -0.041 | inactive: 0.001 | inactive: 0.204 |  | inactive: -0.171 | inactive: 0.079 | inactive: 0.129 |  | inactive: 0
GCDH (UniProt Q92947) | inactive: -0.029 | inactive: 0.039 | inactive: -0.003 | inactive: 0.024 | inactive: -0.051 | inactive: 0.008 | inactive: -0.048 | inactive: 0.072 | inactive: 0.035 | inactive: 0.07 | inactive: 0.004 | inactive: -0.054 | inactive: -0.012 | inactive: 0.045 | inactive: 0.009 | inactive: -0.047 | inactive: 0.008 |  |  | 
FUCA1 (UniProt P04066) | active: -1.33 | active: -1.73 | inactive: -0.061 | inactive: -0.03 | inactive: -0.006 | inactive: -0.025 | inactive: -0.017 | inactive: -0.141 | inactive: 0.038 | inactive: -0.048 | inactive: -0.035 | inactive: -0.015 | inactive: -0.032 | inactive: -0.186 | inactive: 0.023 | inactive: 0 | inactive: 0.014 |  |  | 
GID4 (UniProt Q8IVV7) | inactive: 0.082 | inactive: 0.037 | inactive: 0.044 | inactive: -0.019 | inactive: 0.116 | inactive: -0.21 | inactive: -0.093 | inactive: -0.006 | inactive: 0.04 | inactive: -0.091 | inactive: 0.015 | inactive: -0.038 | inactive: 0.032 | inactive: 0.032 | inactive: -0.079 | inactive: -0.072 | inactive: 0.139 |  |  | 
GCC2 (UniProt Q8IWJ2) | inactive: 0.094 | inactive: -0.116 | inactive: 0.053 | inactive: -0.005 | inactive: 0.013 | inactive: 0.026 | inactive: 0.196 | inactive: 0.031 | inactive: -0.051 | inactive: -0.077 | inactive: 0.053 | inactive: 0.061 | inactive: 0.026 | inactive: 0.175 | inactive: 0.031 | inactive: 0.136 | inactive: -0.049 |  |  | 
GATD1 (UniProt Q8NB37) | inactive: -0.023 | inactive: -0.009 | inactive: -0.032 | inactive: 0.078 | inactive: -0.034 | inactive: -0.02 | inactive: 0.011 | inactive: -0.049 | inactive: 0.077 | inactive: 0.057 | inactive: 0.06 | inactive: -0.079 | inactive: 0.001 | inactive: -0.004 | inactive: -0.022 | inactive: 0 | inactive: 0.011 |  |  | 
FYB1 isoform 3 (UniProt O15117) | inactive: -0.018 | inactive: -0.201 | inactive: 0.263 | inactive: 0.052 | inactive: -0.008 | inactive: 0.019 | inactive: -0.068 | inactive: -0.246 | inactive: 0.007 | inactive: -0.101 | inactive: -0.018 | inactive: 0 | inactive: -0.112 | inactive: 0.028 | inactive: -0.076 | inactive: 0.074 | inactive: -0.01 |  |  | 
GAK (UniProt O14976) | inactive: 0.673 | inactive: 1.35 | inactive: -0.401 | inactive: -0.046 | inactive: 0.11 | inactive: 0.382 | inactive: -0.038 | inactive: 0.95 | inactive: 1.06 | inactive: -0.066 | inactive: 0.011 | inactive: 1.11 | inactive: 0.658 | inactive: 0.237 | inactive: 0.402 | inactive: -0.17 | inactive: -0.266 |  |  | 
GCLM (UniProt P48507) | inactive: -0.183 | active: -0.41 | inactive: 0.058 | inactive: 0.03 | inactive: -0.046 | inactive: 0.042 | inactive: 0.03 | inactive: -0.112 | inactive: 0.012 | inactive: -0.055 | inactive: 0.061 | inactive: 0.155 | inactive: -0.151 | inactive: 0.033 | inactive: -0.045 | inactive: 0.048 | inactive: -0.042 |  |  | 
FOXK1 (UniProt P85037) | inactive: 0.429 | inactive: -0.017 | inactive: 0.035 | inactive: 0.027 | inactive: 0.041 | inactive: -0.001 | inactive: -0.289 | inactive: 0.456 | inactive: 0.214 | active: -1.37 | inactive: -0.112 | inactive: 0.2 | inactive: -0.941 | inactive: -0.759 | inactive: 0.615 | inactive: 0.054 | inactive: -0.111 |  |  | active: -1.01
GDI1 (UniProt P31150) | inactive: 0.018 | inactive: 0.113 | inactive: 0.025 | inactive: 0.022 | inactive: -0.068 | inactive: -0.015 | inactive: -0.082 | inactive: 0.008 | inactive: 0.017 | inactive: 0.012 | inactive: -0.025 | inactive: 0.012 | inactive: -0.046 | inactive: -0.042 | inactive: -0.015 | inactive: 0.006 | inactive: 0.009 |  |  | 
GABARAPL2 (UniProt P60520) | active: -0.29 | inactive: -0.182 | inactive: 0.041 | inactive: 0.027 | inactive: -0.049 | inactive: -0.017 | inactive: -0.07 | inactive: -0.099 | inactive: 0.021 | inactive: 0.047 | inactive: 0.045 | inactive: 0.011 | inactive: -0.019 | inactive: -0.111 | inactive: -0.013 | inactive: -0.02 | inactive: -0.009 |  |  | 
GATC (UniProt O43716) | inactive: 0.205 | inactive: -0.131 | inactive: 0.05 | inactive: 0.106 | inactive: 0 | inactive: 0.028 | inactive: -0.067 | inactive: 0.238 | inactive: 0.05 |  | inactive: -0.044 |  | inactive: -0.225 | inactive: -0.279 | inactive: 0.004 | inactive: 0.003 | inactive: -0.071 |  | inactive: -0.045 | inactive: -0.003
GHDC (UniProt Q8N2G8) | inactive: -0.075 | inactive: -0.053 | inactive: -0.063 | inactive: -0.021 | inactive: -0.024 | inactive: 0.009 | inactive: -0.053 | inactive: -0.041 | inactive: 0.003 | inactive: 0.085 | inactive: -0.032 | inactive: 0.014 | inactive: -0.033 | inactive: 0.006 | inactive: -0.007 | inactive: 0.001 | inactive: 0.02 |  |  | 
GALC (UniProt P54803) | active: -0.275 | active: -0.959 | inactive: -0.009 | inactive: 0.042 | inactive: 0.096 | inactive: 0.01 | inactive: -0.011 | active: -0.403 | inactive: 0.033 | inactive: 0.047 | inactive: -0.028 | inactive: -0.003 | inactive: 0.017 | inactive: -0.091 | inactive: -0.015 | inactive: 0.024 | inactive: -0.005 |  |  | 
GBA2 (UniProt Q9HCG7) | inactive: 0 | active: 0.308 | inactive: -0.082 | inactive: -0.062 |  | inactive: 0.027 | inactive: -0.085 |  | inactive: -0.046 | inactive: -0.026 | inactive: -0.03 | inactive: -0.012 | inactive: -0.07 | inactive: -0.266 | inactive: 0.11 | inactive: 0.084 | inactive: 0.071 |  |  | 
FRMD8 (UniProt Q9BZ67) | inactive: -0.135 |  | inactive: 0.126 | inactive: 0.076 |  |  |  |  |  |  | inactive: -0.028 |  |  | inactive: 0.079 |  | inactive: 0.174 |  |  |  | inactive: 0.114
GDAP2 (UniProt Q9NXN4) | inactive: 0.155 |  | inactive: 0.076 | inactive: -0.052 |  |  | inactive: 0.079 |  | inactive: -0.117 | inactive: 0.121 |  | inactive: 0.104 |  | inactive: 0.061 | inactive: -0.111 | inactive: 0.253 |  | inactive: 0.028 |  | 

Reprinted at random: 2 entries already listed, in no set order.
Target | log2 fold change [1] | log2 fold change (volasertib) | log2 fold change [2] | log2 fold change (epoxomicin) | log2 fold change [3] | log2 fold change [4] | log2 fold change [5] | log2 fold change [6] | log2 fold change (saracatinib) | log2 fold change (sotrastaurin) | log2 fold change (Tubastatin A) | log2 fold change [7] | log2 fold change (defactinib) | log2 fold change (rucaparib) | log2 fold change [8] | log2 fold change (encorafenib) | log2 fold change [9] | log2 fold change [10] | log2 fold change (rosiglitazone) | log2 fold change (alvocidib)
GATC (UniProt O43716) | inactive: 0.205 | inactive: -0.131 | inactive: 0.05 | inactive: 0.106 | inactive: 0 | inactive: 0.028 | inactive: -0.067 | inactive: 0.238 | inactive: 0.05 |  | inactive: -0.044 |  | inactive: -0.225 | inactive: -0.279 | inactive: 0.004 | inactive: 0.003 | inactive: -0.071 |  | inactive: -0.045 | inactive: -0.003
GATD1 (UniProt Q8NB37) | inactive: -0.023 | inactive: -0.009 | inactive: -0.032 | inactive: 0.078 | inactive: -0.034 | inactive: -0.02 | inactive: 0.011 | inactive: -0.049 | inactive: 0.077 | inactive: 0.057 | inactive: 0.06 | inactive: -0.079 | inactive: 0.001 | inactive: -0.004 | inactive: -0.022 | inactive: 0 | inactive: 0.011 |  |  | 
